Assay results taken from the supplement of paper PMC4604168 (melanoma cell lines).
The other results are listed elsewhere or left out. Repeats are few or missing, and single values can be far off.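 The apoptosis fraction was the count of cleaved-PARP antibody-stained nuclei relative to all DNA-stained nuclei, imaged in 1,536-well plates. Screening doses were set so most cells survived, and baseline and induced cleaved-PARP levels vary greatly across cell lines.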

Legend:
Assay in all cases: cleaved PARP positive nuclei fraction relative to DMSO control; melanoma cells; higher = more apoptosis
Settings in all cases: library dose: low library concentration; 72 h
[1] = system: 501Mel
[2] = system: A101D
[3] = system: A2058
[4] = system: A375
[5] = system: C32
[6] = system: CBRC013 (line from a melanoma biopsy)
[7] = system: CBRC014 (line from a melanoma biopsy)
[8] = system: CBRC016 (line from a melanoma biopsy)
[9] = system: CBRC017 (line from a melanoma biopsy)
[10] = system: CBRC034 (line from a melanoma biopsy)
[11] = system: COLO792
[12] = system: COLO800
[13] = system: COLO829
[14] = system: G361
[15] = system: IPC-298
[16] = system: IST-MEL1
[17] = system: LB2518-MEL
[18] = system: LOXIMVI

| SMILES | cleaved PARP positive nuclei fraction [1] [%] | cleaved PARP positive nuclei fraction [2] [%] | cleaved PARP positive nuclei fraction [3] [%] | cleaved PARP positive nuclei fraction [4] [%] | cleaved PARP positive nuclei fraction [5] [%] | cleaved PARP positive nuclei fraction [6] [%] | cleaved PARP positive nuclei fraction [7] [%] | cleaved PARP positive nuclei fraction [8] [%] | cleaved PARP positive nuclei fraction [9] [%] | cleaved PARP positive nuclei fraction [10] [%] | cleaved PARP positive nuclei fraction [11] [%] | cleaved PARP positive nuclei fraction [12] [%] | cleaved PARP positive nuclei fraction [13] [%] | cleaved PARP positive nuclei fraction [14] [%] | cleaved PARP positive nuclei fraction [15] [%] | cleaved PARP positive nuclei fraction [16] [%] | cleaved PARP positive nuclei fraction [17] [%] | cleaved PARP positive nuclei fraction [18] [%] |
| --- | --- | --- | --- | --- | --- | --- | --- | --- | --- | --- | --- | --- | --- | --- | --- | --- | --- | --- |
| O=C(CCCCCCC(=O)Nc1ccccc1)NO [vorinostat] + COC(=O)c1sccc1S(=O)(=O)Nc1ccc(Nc2ccccc2)cc1OC [GSK0660] (first compound 0.08 µM, partner dose 1 µM) | 265 | 50.6 | 54.6 | 43.9 | 113 | 90.2 | 115 | 35.8 | 43.1 | 84 | 91.5 | 130 | 133 | 53.6 | 84.7 | 88.7 | 164 | 58.5 |
| Cn1cncc1[C@@](N)(c1ccc(Cl)cc1)c1ccc2c(c1)c(-c1cccc(Cl)c1)cc(=O)n2C [tipifarnib] + Cn1cc(/C=C2\C(=O)Nc3cccnc32)c2ccccc21 [GW441756] (first compound 0.01 µM, partner dose 0.4 µM) | 56.4 | 178 | 67.8 | 141 | 73.9 | 366 | 184 | 91.1 | 72.1 | 42.4 | 77.5 | 127 | 67.5 | 79.7 | 122 | 174 | 79 | 31.3 |
| CC(C)(C)c1cnc(CSc2cnc(NC(=O)C3CCNCC3)s2)o1 + CC(C)CCN1c2nc(Nc3cc(F)c(O)c(F)c3)ncc2N(C)C(=O)C1C [BID1870] (first compound 0.01 µM, partner dose 0.2 µM) | 83.5 | 89 | 101 | 71.7 | 271 | 283 | 105 | 82.1 | 84.8 | 51.1 | 73.3 | 129 | 104 | 170 | 168 | 58.5 | 93.6 | 37.3 |
| Cn1nnc2c(C(N)=O)ncn2c1=O [temozolomide] + N#Cc1c(O)c2c(-c3ccc(-c4ccccc4O)cc3)csc2[nH]c1=O [A769662] (first compound 2 µM, partner dose 2 µM) | 84.8 | 120 | 68.2 | 86.2 | 76.8 | 79.1 | 121 | 31.8 | 86.7 | 44.4 | 128 | 26 | 120 | 73.2 | 50.8 | 91 | 228 | 73.9 |
| Nc1cccc2c1CN(C1CCC(=O)NC1=O)C2=O (stereo not given) [lenalidomide] + c1cc(-c2cnn3cc(-c4ccc(OCCN5CCCCC5)cc4)cnc23)ccn1 [Dorsomorphin] (first compound 1 µM, partner dose 0.4 µM) | 81.7 | 54 | 90.7 | 154 | 47.7 | 206 | 94.5 | 97.5 | 176 | 89.1 | 165 | 56.6 | 73.3 | 393 | 80.5 | 138 | 87.2 | 57.9 |
| COc1cc(Nc2ncc(F)c(Nc3ccc4c(n3)NC(=O)C(C)(C)O4)n2)cc(OC)c1OC [Tamatinib] + O=S(=O)(c1ccccc1)N(CC(F)(F)F)c1ccc(C(O)(C(F)(F)F)C(F)(F)F)cc1 [T0901317] (first compound 0.4 µM, partner dose 1.4 µM) | 19 | 149 | 157 | 163 | 35.1 | 128 | 102 | 43.4 | 89.9 | 96.6 | 111 | 154 | 127 | 317 | 89.9 | 62.2 | 190 | 70 |
| Cc1nc(Nc2ncc(C(=O)Nc3c(C)cccc3Cl)s2)cc(N2CCN(CCO)CC2)n1 [dasatanib] + CC(C)CCN1c2nc(Nc3cc(F)c(O)c(F)c3)ncc2N(C)C(=O)C1C [BID1870] (first compound 0.004 µM, partner dose 0.2 µM) | 84.8 | 101 | 185 | 126 | 170 | 45.4 | 130 | 117 | 93.8 | 300 | 287 | 228 | 60.4 | 343 | 175 | 100 | 268 | 76.8 |
| Cn1nnc2c(C(N)=O)ncn2c1=O [temozolomide] + CC(C)CCN1c2nc(Nc3cc(F)c(O)c(F)c3)ncc2N(C)C(=O)C1C [BID1870] (first compound 2 µM, partner dose 0.2 µM) | 22 | 57.7 | 79.8 | 250 | 103 | 55.5 | 120 | 135 | 140 | 124 | 138 | 94.1 | 111 | 72.6 | 87 | 88.5 | 80.5 | 74.3 |
| CC1(C)NC(=O)N(c2ccc([N+](=O)[O-])c(C(F)(F)F)c2)C1=O [nilutamide] + COc1ccc2c(c1)CCC1C2CCC2(C)C(NCCCCCCN3C(=O)C=CC3=O)CCC12 [U73122] (first compound 1 µM, partner dose 0.4 µM) | 50.3 | 146 | 48.5 | 83.1 | 44 | 206 | 96.5 | 28.8 | 72.1 | 93 | 179 | 75 | 84 | 59.4 | 41.8 | 42.7 | 160 | 81.9 |
| C[C@]1(c2nc3c(C(N)=O)cccc3[nH]2)CCCN1 [Veliparib] + O=C(O)C(=O)Nc1sc2c(c1C(=O)O)CCNC2 [TCS401] (first compound 1.4 µM, partner dose 1.66667 µM) | 95.9 | 135 | 70.7 | 386 | 34.6 | 149 | 98.1 | 97.8 | 175 | 77 | 52.6 | 86.4 | 120 | 59 | 80.4 | 46.7 | 86.7 | 75.6 |
